# Assay results reported in patent US20050171194A1, “Enlargement of mucocutaneous or cutaneous organs and sites with topical compositions” (priority 2003, published 2005).
# Values joined by “and” are separate entries in the source; they are usually repeats but may differ in a detail not shown here. Equal entries are not always repeated. At least one read-out could not be matched to a standard name with certainty.
# Tested on: forearm skin
# Assay: Forearm skin thickness measured by micrometer calipers after topical application
# Assay type: in vivo, human
# Conditions: twice daily on forearm skin, control = opposite forearm, one subject
# Text: Measuring the increase in thickness of the skin was accomplished in accordance with the following procedures. The increased plumpness or skin thickness by topical application of active ingredients of the embodiments is mainly due to increased biosynthesis of dermal components in the skin. The three most important dermal components are glycosaminoglycans (GAGs), collagens and elastic fibers. The increased skin thickness caused by increased biosynthesis of dermal components can be distinguished from that by water retention or edema formation. In the former case, the skin remains thickened for weeks and months after termination of topical application. In the latter case, the increased skin thickness returns to the original skin thickness within days after termination of topical application. • (1) Forearm Skin
# The most convenient body area for testing skin thickness is the forearm skin. For example, a test substance in a formulation was topically applied once or twice daily to left or right forearm for 3 to 6 months and the other forearm was untreated or treated with a vehicle control. The skin plumpness or thickness was measured by micrometer calipers as follows. The skin was grasped with a 2×6 cm hinge plate, the internal faces of the hinge were coated with soft cloth to prevent slippage, and manually squeezed to a threshold point when the subject felt tight. Combined skin thickness of two whole-skin layers including thickness of the two hinge leaves was measured with micrometer calipers. Thickness of the two hinge leaves was subtracted to determine the actual thickness of two whole-skin layers. Triplicate measurements on treated site were done and an average number was used for calculation of the skin thickness. […]
# Hydroxycarboxylic acids, N-acyl-aldosamines, N-acylamino acids and related compounds at various concentrations were topically applied to forearms of volunteer subjects or patients. As shown in Tables 1-7, the skin plumpness or thickness was increased substantially by the compounds of the present invention. The increased skin thickness was believed to be due to increased biosynthesis of GAGs, collagen and elastic fibers. […]. From the above test results, hydroxycarboxylic acids, N-acyl-aldosamines, N-acylamino acids and related compounds used alone or in combination should be beneficial to plump and pout lips, enhance and firm eyelids, enlarge and augment breasts, elongate and expand penis.
# In one of the studies, skin thickness was measured by micrometer calipers as follows: The skin was grasped with a 2×6 cm metal hinge; the internal faces of which were coated with emery cloth to prevent slippage, and manually squeezed to threshold subject discomfort. Combined thickness of two whole-skin layers including thickness of the two hinge leaves was measured with micrometer calipers. Thickness of the two hinge leaves was subtracted to determine the actual thickness of two whole-skin layers. Triplicate measurements on treated sites were conducted and an average number was used for calculation of the skin thickness.
structure (smiles),measurement,setting,value
O=C1O[C@H](CO)[C@@H](O)[C@H](O)[C@H]1O [D-Gluconolactone],% Increase Over Control (%) (skin thickness),"Conc. 20%, 2-7 months",17% and 18% and 19% and 7% and 12% and 13%
CCOC(=O)[C@H](Cc1ccc(O)cc1)NC(C)=O [N-Acetyl-L-tyrosine Ethyl Ester],% Increase Over Control (%) (skin thickness),"10% solution, 4 weeks",34% and 11%
CC(=O)N[C@H]1C(O)O[C@H](CO)[C@@H](O)[C@@H]1O (stereo partly drawn) [N-Acetyl-D-glucosamine],% Increase Over Control (%) (skin thickness),"10% lotion, 3 weeks",11% and 25% and 21%
CC(=O)N[C@@H](CS)C(=O)O [N-Acetyl-L-cysteine],% Increase Over Control (%) (skin thickness),"5% lotion, 3-5 weeks",11% (2×) and 18%
CC(=O)NC(Cc1c[nH]c2ccccc12)C(=O)O (racemic) [N-Acetyl-DL-tryptophan],% Increase Over Control (%) (skin thickness),"10% lotion, 3-5 weeks",9% and 17% and 14% and 10%
CC(=O)N[C@@H](CCCNC(=N)N)C(=O)O [Nα-Acetyl-L-arginine],% Increase Over Control (%) (skin thickness),"10% solution, 4 weeks",22% and 32%
